At least one peptide structure holds a part that was inferred or is arguable (an end, a ring closure or a residue). Square brackets hold non-standard residues; d marks the D form. Peptide text beside a SMILES is read from it. dTrp(2-Me) = Cc1[nH]c2ccccc2c1C[C@@H](N)C(=O)O; Trp(2-Me) = Cc1[nH]c2ccccc2c1C[C@H](N)C(=O)O; GABA = NCCCC(=O)O
System: healthy subjects
Experiment: Oral capsule in healthy subjects: serum growth hormone and cortisol levels
Type: in vivo, human
Settings: 20 mg capsule orally, 5 healthy subjects

Cc1[nH]c2ccccc2c1C[C@H](NC(=O)[C@@H](Cc1c(C)[nH]c2ccccc12)NC(=O)[C@@H](Cc1c(C)[nH]c2ccccc12)NC(=O)CCCN)C(=O)N[C@@H](CCCCN)C(N)=O [Example 2, GAB--D--Mrp--D--Mrp--Mrp--Lys--NH2] (H-[GABA][dTrp(2-Me)][dTrp(2-Me)][Trp(2-Me)]K-NH2)
serum cortisol levels: without cortisol stimulation
serum growth hormone levels: growth hormone levels were increased

From US5807985A, “Oligopeptide compounds containing D-2-alkyltryptophan capable of promoting the release of growth hormone” (priority 1997, dated 1998)
